Values of other authors as cited in patent publication US20110301209A1, “METHODS AND COMPOSITIONS FOR THE TREATMENT OF CANCER, TUMORS, AND TUMOR-RELATED DISORDERS” (TRAGARA PHARMACEUTICALS, INC., priority 2007, published 2011).

Details: cited from earlier work

## CC(=O)O[C@H]1C(=O)[C@@]2(C)[C@H]([C@H](OC(=O)c3ccccc3)[C@]3(O)C[C@H](OC(=O)[C@H](O)[C@@H](NC(=O)c4ccccc4)c4ccccc4)C(C)=C1C3(C)C)[C@]1(OC(C)=O)CO[C@@H]1C[C@@H]2O [Paclitaxel]
  Solubility in water: highly insoluble
